Data as given in PubChem BioAssay AID504764 (Drosophila RNAi Screening Center, 2011).
The screen tested about 22,000 reagents; below is an unselected part of those with a known target gene and a result. Over the whole deposit, 403 (1.9%) are marked active. 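Unnormalised raw counts per well; ratio z-scores behind the hit calls and whether each hit raises or lowers signal are not deposited.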 The numbers tell different reagents against one gene apart. The record does not give: the amount of reagent.

Test: 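Genes whose knock-down alters Notch-dependent transcription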 (primary screen)
System: Drosophila Kc167 cells
Reagents: long dsRNA against Drosophila genes
Duration: about 5 days (4 days dsRNA, then 24 h after transfection)
Challenge: transfection of constitutively active membrane-tethered Notch lacking the extracellular domain, read 24 h later
Measurement: 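Firefly luciferase from an E(spl)m3 reporter with active Notch, plus control-promoter and uninduced reporter wells for normalisation; unnormalised counts, duplicate wells a and b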
Scale: induced reporter light, run 1, well a and induced reporter light, run 1, well b: higher = more light from the Notch target reporter with active Notch; control promoter light, run 1, well a and control promoter light, run 1, well b: higher = more light from the viral control promoter (cell number, transfection, viability); uninduced reporter light, run 1, well a: higher = more light from the Notch target reporter without active Notch
Call rule: 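Hit if the duplicate-averaged log2 ratio of induced to control-promoter light gives a plate-wise z beyond ±2, or induced to uninduced beyond ±1.8; weak-control or discordant-duplicate wells dropped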
Calls: active = modifier hit (raised or lowered Notch signal); inactive = not a hit

| Target gene | reagent no. | induced reporter light, run 1, well a | induced reporter light, run 1, well b | control promoter light, run 1, well a | control promoter light, run 1, well b | uninduced reporter light, run 1, well a | Call |
| --- | --- | --- | --- | --- | --- | --- | --- |
| Rlip (Ral interacting protein) | 1 | 1.83e5 | 1.49e5 | 1.98e5 | 1.83e5 | 12885 | inactive |
| dpr7 (defective proboscis extension response 7) | 1 | 64020 | 87600 | 1.05e5 | 85685 | 6295 | inactive |
| CG1910 | 1 | 1.66e5 | 1.78e5 | 2.64e5 | 2.44e5 | 13585 | inactive |
| Dro (Drosocin) | 1 | 1.05e5 | 87590 | 1.30e5 | 1.08e5 | 9430 | inactive |
| PrBP (Prenyl-binding protein) | 1 | 88445 | 92945 | 37775 | 44595 | 7025 | inactive |
| sPLA2 (secretory Phospholipase A2) | 1 | 1.91e5 | 2.05e5 | 1.91e5 | 2.16e5 | 16050 | inactive |
| Or98P (Odorant receptor 98a pseudogene) | 1 | – | – | – | – | – | inactive |
| Zn72D (Zinc-finger protein at 72D) | 1 | 83900 | 78335 | 62275 | 51380 | 7720 | inactive |
| Nubp2 (NUBP iron-sulfur cluster assembly factor 2) | 1 | 1.49e5 | 1.39e5 | 1.36e5 | 1.30e5 | 8628 | inactive |
| Mov10 (Mov10 RISC complex RNA helicase) | 1 | 99620 | 99030 | 1.57e5 | 1.81e5 | 8440 | inactive |
| Toll-6 | 1 | 1.41e5 | 1.62e5 | 3.09e5 | 3.01e5 | 6970 | active |
| alien | 1 | 1.49e5 | 1.29e5 | 78045 | 85530 | 20460 | active |
| Or69a (Odorant receptor 69a) | 1 | 1.84e5 | 1.32e5 | 1.82e5 | 1.58e5 | 9420 | inactive |
| CG9541 | 1 | 99995 | 1.10e5 | 61120 | 74440 | 15460 | inactive |
| CG31176 | 1 | 1.87e5 | 1.36e5 | 2.01e5 | 2.32e5 | 13875 | inactive |
| CG31176 | 2 | 1.81e5 | 1.33e5 | 1.83e5 | 1.96e5 | 9800 | inactive |
| CG15422 | 1 | 1.82e5 | 1.41e5 | 1.40e5 | 1.48e5 | 9525 | inactive |
| Ppr-Y | 1 | 2.26e5 | 2.16e5 | 3.02e5 | 3.17e5 | 14855 | inactive |
| Ae2 (Anion exchanger 2) | 1 | 1.51e5 | 1.41e5 | 2.40e5 | 2.28e5 | 11500 | inactive |
| Ae2 (Anion exchanger 2) | 2 | 1.35e5 | 1.22e5 | 94310 | 86490 | 13280 | inactive |
| CG13055 | 1 | 1.59e5 | 2.12e5 | 2.19e5 | 1.79e5 | 9828 | inactive |
| CG8389 | 1 | 1.05e5 | 1.01e5 | 1.87e5 | 2.20e5 | 10085 | inactive |
| CG8389 | 2 | – | – | – | – | – | inactive |
| sinah (sina homologue) | 1 | 2.06e5 | 1.79e5 | 2.74e5 | 1.68e5 | 7380 | inactive |
| sinah (sina homologue) | 2 | – | – | – | – | – | inactive |
| CG32486 | 1 | 70330 | 93975 | 68410 | 22800 | 14095 | inactive |
| CG32486 | 2 | 1.58e5 | 1.18e5 | 2.35e5 | 1.63e5 | 7450 | inactive |
| sdt (stardust) | 1 | 47890 | 46655 | 30280 | 25485 | 4925 | inactive |
| sdt (stardust) | 2 | 89460 | 55600 | 92090 | 1.64e5 | 4685 | inactive |
| sdt (stardust) | 3 | 1.21e5 | 1.35e5 | 2.62e5 | 2.29e5 | 10520 | inactive |
| sdt (stardust) | 4 | 1.53e5 | 1.63e5 | 3.06e5 | 2.00e5 | 12355 | inactive |
| sdt (stardust) | 5 | 1.26e5 | 1.39e5 | 2.25e5 | 2.62e5 | 10135 | inactive |
| sdt (stardust) | 6 | 18155 | 15505 | 18520 | 18590 | 4980 | inactive |
| sdt (stardust) | 7 | 4675 | 5032 | 9180 | 10260 | 1965 | inactive |
| sdt (stardust) | 8 | 39615 | 30380 | 43780 | 38600 | 5815 | inactive |
| sdt (stardust) | 9 | 1.64e5 | 1.80e5 | 3.38e5 | 3.13e5 | 12115 | inactive |
| CG31960 | 1 | 1.03e5 | 86865 | 97605 | 89220 | 6010 | inactive |
| CG1440 | 1 | 1.56e5 | 1.76e5 | 2.70e5 | 2.49e5 | 12910 | inactive |
| CG31462 (retired record) | 1 | 56920 | 66630 | 69940 | 64570 | 4590 | inactive |
| CG12126 | 1 | 2.13e5 | 1.86e5 | 2.50e5 | 2.32e5 | 16660 | inactive |
| CG15263 | 1 | 1.43e5 | 1.33e5 | 1.37e5 | 1.68e5 | 11142 | inactive |
| CG12159 | 1 | 1.59e5 | 1.44e5 | 2.34e5 | 1.94e5 | 14215 | inactive |
| CG15044 | 1 | 91645 | 78775 | 98740 | 1.01e5 | 10955 | inactive |
| CG3634 | 1 | 1.12e5 | 1.11e5 | 1.22e5 | 1.14e5 | 10000 | inactive |
| CG8578 | 1 | 1.92e5 | 1.82e5 | 2.21e5 | 2.23e5 | 14830 | inactive |
| vn (vein) | 1 | 91885 | 63120 | 54780 | 47735 | 10630 | inactive |
| nAChRbeta2 (nicotinic Acetylcholine Receptor beta2) | 1 | 73125 | 88600 | 75480 | 74555 | 7995 | inactive |
| clt (cricklet) | 1 | 53860 | 50920 | 47200 | 50570 | 3055 | inactive |
| usp (ultraspiracle) | 1 | 1.43e5 | 1.38e5 | 2.27e5 | 2.52e5 | 10235 | inactive |
| mRpS18A (mitochondrial ribosomal protein S18A) | 1 | 73295 | 80385 | 67365 | 48455 | 6078 | inactive |

Hits, among the entries above:
| Target gene | reagent no. | induced reporter light, run 1, well a | induced reporter light, run 1, well b | control promoter light, run 1, well a | control promoter light, run 1, well b | uninduced reporter light, run 1, well a | Call |
| --- | --- | --- | --- | --- | --- | --- | --- |
| Toll-6 | 1 | 1.41e5 | 1.62e5 | 3.09e5 | 3.01e5 | 6970 | active |
| alien | 1 | 1.49e5 | 1.29e5 | 78045 | 85530 | 20460 | active |
